{"sequences": {"note": "The chains behind the UniProt entries cited, without tags or fusion partners.", "UniProt P03179": "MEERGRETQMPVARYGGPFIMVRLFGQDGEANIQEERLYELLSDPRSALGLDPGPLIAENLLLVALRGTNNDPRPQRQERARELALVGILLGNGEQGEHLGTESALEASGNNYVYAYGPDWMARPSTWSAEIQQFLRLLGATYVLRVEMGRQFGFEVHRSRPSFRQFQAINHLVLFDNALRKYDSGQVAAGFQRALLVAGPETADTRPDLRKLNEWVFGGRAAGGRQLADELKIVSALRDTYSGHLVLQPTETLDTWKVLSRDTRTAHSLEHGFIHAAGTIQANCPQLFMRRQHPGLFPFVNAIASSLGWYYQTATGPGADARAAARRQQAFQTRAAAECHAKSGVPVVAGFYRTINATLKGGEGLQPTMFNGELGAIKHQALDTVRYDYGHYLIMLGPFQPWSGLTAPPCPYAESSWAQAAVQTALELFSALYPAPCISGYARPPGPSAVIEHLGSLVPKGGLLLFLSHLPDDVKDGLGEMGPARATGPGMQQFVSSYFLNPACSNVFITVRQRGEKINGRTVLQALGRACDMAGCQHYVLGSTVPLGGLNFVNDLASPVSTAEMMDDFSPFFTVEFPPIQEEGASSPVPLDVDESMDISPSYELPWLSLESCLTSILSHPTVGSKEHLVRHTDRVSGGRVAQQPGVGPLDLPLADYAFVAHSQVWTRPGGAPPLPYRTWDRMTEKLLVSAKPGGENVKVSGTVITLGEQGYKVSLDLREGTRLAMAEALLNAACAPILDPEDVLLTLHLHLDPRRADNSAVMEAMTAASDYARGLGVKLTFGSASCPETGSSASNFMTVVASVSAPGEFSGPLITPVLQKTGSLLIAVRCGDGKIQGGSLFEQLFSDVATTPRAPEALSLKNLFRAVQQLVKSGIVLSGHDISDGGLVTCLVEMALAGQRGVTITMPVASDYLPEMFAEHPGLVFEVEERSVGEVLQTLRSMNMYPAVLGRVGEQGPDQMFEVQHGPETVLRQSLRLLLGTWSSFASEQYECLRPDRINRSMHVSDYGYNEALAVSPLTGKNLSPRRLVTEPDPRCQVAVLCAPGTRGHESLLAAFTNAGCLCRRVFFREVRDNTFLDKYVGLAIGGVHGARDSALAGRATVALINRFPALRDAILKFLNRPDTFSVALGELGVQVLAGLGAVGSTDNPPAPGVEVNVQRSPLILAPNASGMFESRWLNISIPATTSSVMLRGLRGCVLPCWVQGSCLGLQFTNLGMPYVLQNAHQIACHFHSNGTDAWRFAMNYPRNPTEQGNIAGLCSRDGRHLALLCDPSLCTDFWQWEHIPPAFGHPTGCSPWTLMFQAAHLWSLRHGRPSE"}, "source": "paper PMC8981113", "target": "HA-epitope tagged BNRF1 (EBV major tegument protein), wild type (Epstein-Barr virus) (UniProt P03179)", "assay": "affinity purification with mass spectrometry; HA-tagged BNRF1 (dox 15 h) from P3HR-1 ZHT/RHT induced for lytic replication by 4-HT/NaB 24 h; MCLB buffer (50 mM Tris-HCl pH 7.5, 300 mM NaCl, 0.5% NP40, 1 mM DTT); anti-HA agarose, HA peptide elution; LC-MS/MS, CompPASS against HA-BPLF1, HA-BLRF2, HA-BOLF1 controls", "note": "These are yes or no findings as the source states them, for the method shown. In cells and extracts the contact can be indirect. These calls come from enrichment with a bait or labelling near it, and not all partners need be listed."}
{"binder": "CAPNS1 (calpain regulatory subunit) (protein, UniProt P04632 1-268) MFLVNSFLKGGGGGGGGGGGLGGGLGNVLGGLISGAGGGGGGGGGGGGGGGGGGGGTAMRILGGVISAISEAAAQYNPEPPPPRTHYSNIEANESEEVRQFRRLFAQLAGDDMEVSATELMNILNKVVTRHPDLKTDGFGIDTCRSMVAVMDSDTTGKLGFEEFKYLWNNIKRWQAIYKQFDTDRSGTICSSELPGAFEAAGFHLNEHLYNMIIRRYSDESGNMDFDNFISCLVRLDAMFRAFKSLDKDGTGQIQVNIQEWLQLTMYS", "values": [{"measurement": "binding", "value": "binds"}]}
